# Values quoted from earlier work as cited in patent publication US7534787B2, “Method of treating diseases and conditions associated with an altered level of amyloid beta peptides and new enolcarboxamide compounds” (Boehringer Ingelheim International GmbH, priority 2004, dated 2009).
# At least one compound was matched to its structure with a doubt left.
# System: Aβ42
# Settings: according to table 3 of WO 01/78721
structure (smiles),measurement,value
Cc1cnc(NC(=O)C2=C(O)c3ccccc3S(=O)(=O)N2C)s1 [meloxicam],Aβ42 lowering activity,do not lower or even increase the Aβ42 level
